Test results from publication PMC4513902 (Journal of Radioanalytical and Nuclear Chemistry, 2013).

Assay: general procedure: Fmoc solid-phase peptide synthesis; Rink Amide MBHA resin, substitution 0.69 mmol/g; N-hydroxybenzotriazole/Diisopropylcarbodiimide/DIPEA; HATU/DIPEA for HYNIC-BOC
Conditions: whole synthesis

Question: With “[HYNIC-D-Tyr^5-D-Tyr^6-D-Phe^13] BB (5–14)” as the substance, how does the “final HPLC purity” value (analytic RP-HPLC, LC/MSD) read?
Answer: >99%

Question: What about the isolated yield (overall) of the same substance?
Answer: nearly 47%
